The results in this text go back to publication PMC6033357.

Protein sequences, listed by entry. Tags and fused reporters are not part of them.
UniProt O15379: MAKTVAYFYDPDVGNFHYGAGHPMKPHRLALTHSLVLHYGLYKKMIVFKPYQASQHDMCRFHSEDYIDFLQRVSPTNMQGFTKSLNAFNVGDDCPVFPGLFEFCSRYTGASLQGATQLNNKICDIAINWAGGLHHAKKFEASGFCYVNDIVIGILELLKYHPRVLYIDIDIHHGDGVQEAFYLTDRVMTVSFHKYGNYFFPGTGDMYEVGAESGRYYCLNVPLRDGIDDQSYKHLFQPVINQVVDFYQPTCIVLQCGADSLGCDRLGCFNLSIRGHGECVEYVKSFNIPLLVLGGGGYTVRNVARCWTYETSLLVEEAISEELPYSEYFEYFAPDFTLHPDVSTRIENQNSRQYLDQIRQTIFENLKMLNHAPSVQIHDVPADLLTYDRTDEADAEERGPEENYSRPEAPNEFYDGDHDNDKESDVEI
UniProt Q9Y6Q9: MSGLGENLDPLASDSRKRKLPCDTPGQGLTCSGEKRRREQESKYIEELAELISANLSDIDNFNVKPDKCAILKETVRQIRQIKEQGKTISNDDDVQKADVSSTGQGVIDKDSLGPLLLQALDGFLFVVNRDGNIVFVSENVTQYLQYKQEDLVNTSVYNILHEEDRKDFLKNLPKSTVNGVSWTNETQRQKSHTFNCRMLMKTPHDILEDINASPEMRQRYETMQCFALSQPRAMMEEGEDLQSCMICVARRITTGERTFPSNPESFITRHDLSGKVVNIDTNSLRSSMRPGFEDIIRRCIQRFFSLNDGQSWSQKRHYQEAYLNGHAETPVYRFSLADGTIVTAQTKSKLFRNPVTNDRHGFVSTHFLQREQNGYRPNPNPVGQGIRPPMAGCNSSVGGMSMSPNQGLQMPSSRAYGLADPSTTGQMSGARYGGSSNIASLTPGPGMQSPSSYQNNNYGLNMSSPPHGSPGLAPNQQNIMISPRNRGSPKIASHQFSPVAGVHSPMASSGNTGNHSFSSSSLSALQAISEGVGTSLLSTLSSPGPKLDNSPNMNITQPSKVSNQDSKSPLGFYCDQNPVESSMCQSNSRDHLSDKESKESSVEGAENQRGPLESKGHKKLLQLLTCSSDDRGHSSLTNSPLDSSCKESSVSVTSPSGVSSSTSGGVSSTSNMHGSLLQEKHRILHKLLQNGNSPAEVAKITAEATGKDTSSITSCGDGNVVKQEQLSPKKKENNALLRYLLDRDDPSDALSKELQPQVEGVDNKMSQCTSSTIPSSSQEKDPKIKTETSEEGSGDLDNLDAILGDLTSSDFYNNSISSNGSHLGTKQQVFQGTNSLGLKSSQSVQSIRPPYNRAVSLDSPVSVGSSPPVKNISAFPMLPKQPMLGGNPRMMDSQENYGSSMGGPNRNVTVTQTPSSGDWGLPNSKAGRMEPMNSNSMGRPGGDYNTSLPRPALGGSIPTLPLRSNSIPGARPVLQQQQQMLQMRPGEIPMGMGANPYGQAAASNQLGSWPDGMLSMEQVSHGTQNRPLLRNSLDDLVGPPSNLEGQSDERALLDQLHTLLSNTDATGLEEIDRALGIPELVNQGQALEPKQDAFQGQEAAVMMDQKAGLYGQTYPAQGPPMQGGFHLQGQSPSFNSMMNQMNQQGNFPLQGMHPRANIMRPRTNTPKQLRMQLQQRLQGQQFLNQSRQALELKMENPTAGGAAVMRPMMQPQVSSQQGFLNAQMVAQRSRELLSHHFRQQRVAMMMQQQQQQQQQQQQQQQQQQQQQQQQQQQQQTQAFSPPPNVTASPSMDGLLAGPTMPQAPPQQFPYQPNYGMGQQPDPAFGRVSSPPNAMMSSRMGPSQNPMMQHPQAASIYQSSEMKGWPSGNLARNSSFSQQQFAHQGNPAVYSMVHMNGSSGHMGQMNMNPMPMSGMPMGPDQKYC
UniProt O75376: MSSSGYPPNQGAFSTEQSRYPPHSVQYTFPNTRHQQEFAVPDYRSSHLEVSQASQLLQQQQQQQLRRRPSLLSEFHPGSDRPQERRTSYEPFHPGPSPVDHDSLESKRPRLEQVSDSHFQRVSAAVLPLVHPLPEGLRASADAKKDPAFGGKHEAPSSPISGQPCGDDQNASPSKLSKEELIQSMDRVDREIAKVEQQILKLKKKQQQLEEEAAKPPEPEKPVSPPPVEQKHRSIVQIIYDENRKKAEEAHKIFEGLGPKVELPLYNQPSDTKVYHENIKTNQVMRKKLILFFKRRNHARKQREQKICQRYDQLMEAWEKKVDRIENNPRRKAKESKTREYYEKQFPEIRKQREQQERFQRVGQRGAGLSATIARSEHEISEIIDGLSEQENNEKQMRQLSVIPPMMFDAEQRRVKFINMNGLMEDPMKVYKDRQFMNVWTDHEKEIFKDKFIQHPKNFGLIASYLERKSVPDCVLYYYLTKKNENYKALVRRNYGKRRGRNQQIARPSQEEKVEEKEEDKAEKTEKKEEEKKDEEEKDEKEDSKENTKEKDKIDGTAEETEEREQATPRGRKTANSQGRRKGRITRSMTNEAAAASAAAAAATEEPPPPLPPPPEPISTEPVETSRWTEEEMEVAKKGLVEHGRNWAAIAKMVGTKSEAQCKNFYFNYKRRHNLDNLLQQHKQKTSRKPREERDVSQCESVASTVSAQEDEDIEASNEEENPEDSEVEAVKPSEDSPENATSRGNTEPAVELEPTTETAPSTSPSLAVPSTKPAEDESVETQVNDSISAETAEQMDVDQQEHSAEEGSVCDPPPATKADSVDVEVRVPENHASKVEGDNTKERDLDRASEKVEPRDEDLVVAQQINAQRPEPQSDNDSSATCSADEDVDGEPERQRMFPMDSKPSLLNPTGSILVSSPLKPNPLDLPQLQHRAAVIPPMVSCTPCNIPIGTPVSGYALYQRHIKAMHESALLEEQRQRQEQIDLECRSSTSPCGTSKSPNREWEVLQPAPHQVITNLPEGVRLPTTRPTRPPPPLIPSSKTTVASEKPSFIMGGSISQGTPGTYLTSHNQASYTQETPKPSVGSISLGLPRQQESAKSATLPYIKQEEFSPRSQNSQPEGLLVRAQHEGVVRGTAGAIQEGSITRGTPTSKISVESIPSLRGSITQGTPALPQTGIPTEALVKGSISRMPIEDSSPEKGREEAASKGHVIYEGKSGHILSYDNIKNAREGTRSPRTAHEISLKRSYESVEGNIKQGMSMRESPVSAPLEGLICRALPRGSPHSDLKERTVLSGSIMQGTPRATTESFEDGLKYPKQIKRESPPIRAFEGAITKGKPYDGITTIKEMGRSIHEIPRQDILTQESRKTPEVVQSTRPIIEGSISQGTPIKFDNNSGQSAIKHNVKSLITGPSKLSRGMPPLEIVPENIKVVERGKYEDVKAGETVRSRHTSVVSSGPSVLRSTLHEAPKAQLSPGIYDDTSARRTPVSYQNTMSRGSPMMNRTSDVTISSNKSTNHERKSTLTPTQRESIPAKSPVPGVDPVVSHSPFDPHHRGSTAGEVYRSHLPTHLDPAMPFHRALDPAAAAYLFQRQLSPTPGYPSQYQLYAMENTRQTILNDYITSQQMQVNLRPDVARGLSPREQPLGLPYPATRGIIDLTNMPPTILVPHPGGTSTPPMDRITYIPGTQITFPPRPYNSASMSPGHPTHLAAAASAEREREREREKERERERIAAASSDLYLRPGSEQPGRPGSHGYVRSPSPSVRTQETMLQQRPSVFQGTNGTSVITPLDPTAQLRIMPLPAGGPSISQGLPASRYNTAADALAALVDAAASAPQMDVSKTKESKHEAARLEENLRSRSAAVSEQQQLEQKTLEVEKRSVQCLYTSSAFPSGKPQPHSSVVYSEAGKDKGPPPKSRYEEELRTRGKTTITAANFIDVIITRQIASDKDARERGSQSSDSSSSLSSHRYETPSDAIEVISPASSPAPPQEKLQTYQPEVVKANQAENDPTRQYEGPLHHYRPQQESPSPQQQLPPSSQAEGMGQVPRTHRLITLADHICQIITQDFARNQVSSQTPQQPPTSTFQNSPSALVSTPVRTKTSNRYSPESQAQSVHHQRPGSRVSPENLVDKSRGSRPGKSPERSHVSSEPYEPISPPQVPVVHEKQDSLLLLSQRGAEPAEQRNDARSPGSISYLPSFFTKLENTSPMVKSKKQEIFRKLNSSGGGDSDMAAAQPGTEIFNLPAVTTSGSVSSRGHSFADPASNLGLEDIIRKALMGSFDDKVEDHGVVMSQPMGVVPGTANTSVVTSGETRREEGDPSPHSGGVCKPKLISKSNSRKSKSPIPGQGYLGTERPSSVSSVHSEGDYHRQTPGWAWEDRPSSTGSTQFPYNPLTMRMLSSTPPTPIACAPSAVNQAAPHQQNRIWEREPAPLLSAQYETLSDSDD
UniProt Q9UKL0: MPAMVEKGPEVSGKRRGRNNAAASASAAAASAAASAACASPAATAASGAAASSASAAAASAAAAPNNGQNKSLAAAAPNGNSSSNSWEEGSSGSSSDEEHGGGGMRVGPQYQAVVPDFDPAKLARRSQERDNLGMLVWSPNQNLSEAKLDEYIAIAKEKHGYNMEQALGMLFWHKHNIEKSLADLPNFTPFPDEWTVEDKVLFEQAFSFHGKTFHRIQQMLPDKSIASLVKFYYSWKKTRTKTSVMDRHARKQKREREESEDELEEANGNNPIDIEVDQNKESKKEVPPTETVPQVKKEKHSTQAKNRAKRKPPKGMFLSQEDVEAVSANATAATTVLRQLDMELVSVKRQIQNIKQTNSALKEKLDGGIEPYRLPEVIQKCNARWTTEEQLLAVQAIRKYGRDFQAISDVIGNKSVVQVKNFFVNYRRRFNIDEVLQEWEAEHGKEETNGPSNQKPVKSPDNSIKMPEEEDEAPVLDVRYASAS

No constants are given. Whether binding was seen depends on the method and setting. Binding seen in cells or lysates may run through a third protein. These calls come from enrichment with a bait or labelling near it, and not all partners need be listed. No binding means not detected with the bait. For some assays here: Sequences can lack the tags named with a protein.

Assay [1] addresses T1, Nucleus accumbens-associated protein 1 (NAC1), endogenous (human (endogenous in HeLa, ovarian cancer cell lines and HEK293T)) (UniProt Q96RE7).
T1 sequence: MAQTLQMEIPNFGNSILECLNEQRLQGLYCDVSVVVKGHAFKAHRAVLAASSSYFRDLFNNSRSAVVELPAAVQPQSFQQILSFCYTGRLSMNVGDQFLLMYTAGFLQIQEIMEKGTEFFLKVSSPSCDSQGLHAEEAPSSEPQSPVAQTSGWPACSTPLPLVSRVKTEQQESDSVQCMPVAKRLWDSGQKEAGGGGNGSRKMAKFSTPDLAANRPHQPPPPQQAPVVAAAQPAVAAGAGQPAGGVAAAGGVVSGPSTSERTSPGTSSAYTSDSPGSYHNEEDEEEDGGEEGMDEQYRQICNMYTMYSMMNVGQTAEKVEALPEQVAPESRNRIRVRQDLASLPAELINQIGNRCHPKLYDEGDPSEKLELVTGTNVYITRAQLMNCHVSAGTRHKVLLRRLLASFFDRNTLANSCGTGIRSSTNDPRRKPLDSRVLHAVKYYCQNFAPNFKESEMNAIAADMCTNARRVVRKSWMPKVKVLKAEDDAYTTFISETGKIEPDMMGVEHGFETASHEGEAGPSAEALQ
In words: affinity purification with mass spectrometry; 1% (v/v) Triton X-100 HeLa lysate fractionated by FPLC on Superdex 200 Increase 10/300 GL; fractions 18 to 20 immunoprecipitated with anti-NAC1 antibody; SDS-PAGE, silver-stained bands excised, LC-MS/MS.

Assay [2] deals with T2, Nucleus accumbens-associated protein 1 (NAC1), endogenous (human (endogenous in HeLa, ovarian cancer cell lines and HEK293T)), Q96RE7.
T2 chain: T1 sequence
Described as above. The settings on record: remark: other sources report otherwise.

Regarding “Histone deacetylase HDAC3 (from UniProt O15379 1-428) (enzyme)”, in assay [1], the binding entry was “no binding”.

In the case of “Nuclear receptor coactivator 3 (NCoA3), endogenous (from UniProt Q9Y6Q9 1-1424)”, in assay [1], the binding result was “binds”.

On to “Nuclear receptor corepressor 1 (NCoR) (from UniProt O75376 1-2440)”, for which, in assay [1], the binding result is reported as “no binding”.

“REST corepressor 1 (CoREST) (from UniProt Q9UKL0 1-485)”: the binding result in assay [1] is given as “no binding”.

B1: Histone deacetylase HDAC4, P56524 1-1084 (enzyme)
chain: MSSQSHPDGLSGRDQPVELLNPARVNHMPSTVDVATALPLQVAPSAVPMDLRLDHQFSLPVAEPALREQQLQQELLALKQKQQIQRQILIAEFQRQHEQLSRQHEAQLHEHIKQQQEMLAMKHQQELLEHQRKLERHRQEQELEKQHREQKLQQLKNKEKGKESAVASTEVKMKLQEFVLNKKKALAHRNLNHCISSDPRYWYGKTQHSSLDQSSPPQSGVSTSYNHPVLGMYDAKDDFPLRKTASEPNLKLRSRLKQKVAERRSSPLLRRKDGPVVTALKKRPLDVTDSACSSAPGSGPSSPNNSSGSVSAENGIAPAVPSIPAETSLAHRLVAREGSAAPLPLYTSPSLPNITLGLPATGPSAGTAGQQDAERLTLPALQQRLSLFPGTHLTPYLSTSPLERDGGAAHSPLLQHMVLLEQPPAQAPLVTGLGALPLHAQSLVGADRVSPSIHKLRQHRPLGRTQSAPLPQNAQALQHLVIQQQHQQFLEKHKQQFQQQQLQMNKIIPKPSEPARQPESHPEETEEELREHQALLDEPYLDRLPGQKEAHAQAGVQVKQEPIESDEEEAEPPREVEPGQRQPSEQELLFRQQALLLEQQRIHQLRNYQASMEAAGIPVSFGGHRPLSRAQSSPASATFPVSVQEPPTKPRFTTGLVYDTLMLKHQCTCGSSSSHPEHAGRIQSIWSRLQETGLRGKCECIRGRKATLEELQTVHSEAHTLLYGTNPLNRQKLDSKKLLGSLASVFVRLPCGGVGVDSDTIWNEVHSAGAARLAVGCVVELVFKVATGELKNGFAVVRPPGHHAEESTPMGFCYFNSVAVAAKLLQQRLSVSKILIVDWDVHHGNGTQQAFYSDPSVLYMSLHRYDDGNFFPGSGAPDEVGTGPGVGFNVNMAFTGGLDPPMGDAEYLAAFRTVVMPIASEFAPDVVLVSSGFDAVEGHPTPLGGYNLSARCFGYLTKQLMGLAGGRIVLALEGGHDLTAICDASEACVSALLGNELDPLPEKVLQQRPNANAVRSMEKVMEIHSKYWRCLQRTTSTAGRSLIEAQTCENEEAETVTAMASLSVGVKPAEKRPDEEPMEEEPPL
For B1, in assay [2], the binding entry is reported as “no binding”.
